Data on two compounds can be found in paper PMC8620715, “Biological Activity of Triazolopyrimidine Copper(II) Complexes Modulated by an Auxiliary N-N-Chelating Heterocycle Ligands” (Molecules, 2021).

This data set can be described thus: ROS scavenging ability by EPR spectroscopy (KO2, H2O2). Particulars: 5 mM complex in DMSO; for interaction with hydroxyl radicals (EPR signal on adding H2O2): H2O2 as OH· source; for interaction with superoxide (EPR signal on adding KO2): KO2 10 and 50 μM.

As for `Cc1cc(C)n2ncnc2n1.Cc1cc(C)n2ncnc2n1.Cc1cc(C)n2ncnc2n1.O.[Cu+2].[O-][Cl+3]([O-])([O-])[O-].[O-][Cl+3]([O-])([O-])[O-].c1ccc(-c2ccccn2)nc1` [Complex (1), [Cu(bpy)(dmtp)2(OH2)](ClO4)2·dmtp], the “interaction with hydroxyl radicals (EPR signal on adding H2O2)” value is listed as “trapped rather than scavenged” and the “interaction with superoxide (EPR signal on adding KO2)” value is on record as “trapped rather than scavenged”.

Regarding `Cc1cc(C)n2ncnc2n1.Cc1cc(C)n2ncnc2n1.Cc1cc(C)n2ncnc2n1.O.[Cu+2].[O-][Cl+3]([O-])([O-])[O-].[O-][Cl+3]([O-])([O-])[O-].c1cnc2c(c1)ccc1cccnc12` [Complex (2), [Cu(phen)(dmtp)2(OH2)](ClO4)2·dmtp], the “interaction with hydroxyl radicals (EPR signal on adding H2O2)” value is “no reaction towards the hydroxyl radicals” and the “interaction with superoxide (EPR signal on adding KO2)” value was “some scavenging ability”.
